Source: the supplement of paper PMC9578143, “Small-Molecule Ebselen Binds to YTHDF Proteins Interfering with the Recognition of N^6-Methyladenosine-Modified RNAs” (ACS Pharmacology & Translational Science, 2022)
Some of the results follow. Baselines shift from plate to plate; read single values as rough.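 Hits were defined as a z-score below −3.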

What follows are molecules tested against T1, YTHDF1 YTH domain (aa 365-554) (UniProt Q9BYJ9) (assay: tryptophan fluorescence intensity z-score (mean); higher = higher fluorescence, less quenching (negative = binding / quenching)). Conditions: 10 µM.
T1 sequence (whole entry): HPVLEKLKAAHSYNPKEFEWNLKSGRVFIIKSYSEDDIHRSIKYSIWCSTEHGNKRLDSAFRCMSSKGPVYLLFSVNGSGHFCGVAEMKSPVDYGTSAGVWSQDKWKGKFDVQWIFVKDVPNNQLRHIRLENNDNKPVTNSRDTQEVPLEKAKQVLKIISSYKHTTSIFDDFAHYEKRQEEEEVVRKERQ

Tryptophan fluorescence intensity z-score, inactive:
CC(C)=CCc1c2c(c3occ(-c4ccc(O)cc4)c(=O)c3c1O)C=CC(C)(C)O2 (plate: M 15-16) 0.856, COC(=O)C1=C(C)NC(C)=C(C(=O)OCCN(C)Cc2ccccc2)C1c1cccc([N+](=O)[O-])c1 (centres undefined) (plate: M 13-14) 0.455, O=c1cc(-c2ccc(O)cc2)oc2cc(O)ccc12 (plate: M 17-18) -0.129, COC(=O)C1=C(C)NC(C)=C(C(=O)OCC(C)C)C1c1ccccc1[N+](=O)[O-] (centres undefined) (plate: M 11-12) -0.413, CNCCCN1c2ccccc2CCc2ccccc21 (plate: M 1-2) 0.294, O=C(O)[C@]1(O)C[C@@H](O)[C@@H](O)[C@H](O)C1 (plate: M 17-18) 0.47, CC[n+]1c(-c2ccccc2)c2cc(N)ccc2c2ccc(N)cc21 (plate: M 21-22) -0.537, C[n+]1ccccc1C=NO (plate: M 21-22) 0.0331, C=CCSCC=C (plate: M 21-22) 0.67, CC(N)C(=O)OC(C)(C)Cc1ccc(Cl)cc1 (centres undefined) (plate: M 9-10) 0.243, COc1ccc(/C=C/C(=O)c2cc(O)ccc2O)cc1 (plate: M 19-20) 0.121, CCC(C)n1ncn(-c2ccc(N3CCN(c4ccc(OCC5COC(Cn6cncn6)(c6ccc(Cl)cc6Cl)O5)cc4)CC3)cc2)c1=O (centres undefined) (plate: M 11-12) 0.471, Cc1cccc(Nc2ccccc2C(=O)O)c1C (plate: M 7-8) -0.303, COc1c(O)cc2oc3cc(O)c(CC=C(C)C)c(O)c3c(=O)c2c1CC=C(C)C [alpha-MANGOSTIN] (plate: M 19-20) -0.655, CC1(C)S[C@@H]2[C@H](NC(=O)Cc3ccccc3)C(=O)N2[C@H]1C(=O)O (plate: M 3-4) -0.121, CCCCc1nc(Cl)c(CO)n1Cc1ccc(-c2ccccc2-c2nnn[nH]2)cc1 (plate: M 9-10) -0.258, C=CCCCCCCCCC(=O)O (plate: M 11-12) 0.0682, COC(=O)C[C@H]1C(C)(C)[C@@H](OC(C)=O)[C@@H]2CC3C4CC(=O)O[C@@H](c5ccoc5)[C@]4(C)CCC3[C@@]1(C)C2=O (some centres undefined) (plate: M 13-14) 0.0424, CCN(CC)CCNC(=O)COc1ccc(OC)cc1 (plate: M 7-8) 0.495, CC(C)(C)NCC(O)c1ccc(O)c(CO)c1 (racemic) (plate: M 5-6) -0.151, CC(=O)OCC1=C(C(=O)O)N2C(=O)[C@@H](NC(=O)Cc3cccs3)[C@H]2SC1 (plate: M 1-2) 0.00195, O=C1CCC(N2C(=O)c3ccccc3C2=O)C(=O)N1 (centres undefined) (plate: M 9-10) 0.0571, CC1(C)C[C@@H]2C(=O)CC[C@H]3O[C@]3(C)CC[C@H]21 (plate: M 21-22) 0.538, OC[C@H]1O[C@@](CO)(O[C@H]2O[C@H](CO)[C@@H](O)[C@H](O)[C@H]2O)[C@@H](O[C@H]2O[C@H](CO)[C@@H](O)[C@H](O)[C@H]2O)[C@@H]1O (plate: M 17-18) 0.0199, CC(C)=CCC/C(C)=C/CC/C(C)=C/CC/C(C)=C/CO (plate: M 23-24) 0.505, CCN(CC)Cc1cc(Nc2ccnc3cc(Cl)ccc23)ccc1O (plate: M 1-2) 0.0554, COc1ccc(-c2cc(=O)c3c(O)cc(OC)cc3o2)cc1 (plate: M 21-22) 0.072, O=C(/C=C/C=C/c1ccc2c(c1)OCO2)N1CCCCC1 (plate: M 7-8) 0.00124, CCC(=O)OCC(=O)[C@@]1(OC(=O)CC)[C@@H](C)C[C@H]2[C@@H]3CCC4=CC(=O)C=C[C@]4(C)[C@@]3(Cl)[C@@H](O)C[C@@]21C (plate: M 1-2) -0.535, O=C(O)CN(CCN(CC(=O)O)CC(=O)O)CCN(CC(=O)O)CC(=O)O (plate: M 13-14) 0.508, COc1ccc(-c2cc(=O)c3c(OC)c(OC)c(OC)cc3o2)cc1OC (plate: M 19-20) -0.529, CC(C)NCC(O)c1cc(O)cc(O)c1 (centres undefined) (plate: M 3-4) -0.0333, COc1ccc2c(c1)O[C@H]1c3ccc(OC)cc3OC[C@@H]21 (plate: M 15-16) 0.599, CC1COc2c(N3CCN(C)CC3)c(F)cc3c(=O)c(C(=O)O)cn1c23 (centres undefined) (plate: M 7-8) -0.189, O=C(O)CCCC[C@@H]1SC[C@@H]2NC(=O)N[C@@H]21 (plate: M 7-8) -0.163, C[C@H](CCC(=O)O)[C@H]1CC[C@H]2[C@@H]3CC[C@@H]4C[C@H](O)CC[C@]4(C)[C@H]3CC[C@]12C (plate: M 17-18) 0.221, CC(=O)O[C@@H]1CC2C(C)(C)C(=O)CC[C@]2(C)C2CC[C@]3(C)C(=CC(=O)O[C@H]3c3ccoc3)[C@@]21C (some centres undefined) (plate: M 21-22) -0.0333, CC(=O)O[C@H]1C[C@@H](OC(C)=O)C(C)(C)C2CC(=O)[C@]3(C)C(CC[C@@]4(C)[C@H](c5ccoc5)OC(=O)[C@H]5O[C@]543)[C@]21C (some centres undefined) (plate: M 13-14) -0.016, OCCN1C[C@H](O)[C@@H](O)[C@H](O)[C@H]1CO (plate: M 9-10) -0.273, O=C(O)c1nc2cc(Cl)c(Cl)cc2nc1O (plate: M 21-22) 0.157, CC(=O)OCC[N+](C)(C)C (plate: M 1-2) -0.445, Cn1cnc([N+](=O)[O-])c1Sc1ncnc2[nH]cnc12 (plate: M 1-2) -0.0378, CC(C)C(=O)Nc1ccc([N+](=O)[O-])c(C(F)(F)F)c1 (plate: M 7-8) 0.00302, NCC[C@H](O)C(=O)N[C@@H]1C[C@H](N)[C@@H](O[C@H]2O[C@H](CN)[C@@H](O)[C@H](O)[C@H]2O)[C@H](O)[C@H]1O[C@H]1O[C@H](CO)[C@@H](O)[C@H](N)[C@H]1O (plate: M 1-2) -0.0746
